Test results published in PubChem BioAssay AID624297 (National Center for Advancing Translational Sciences (NCATS), 2012).
“And” between values parts separate entries of the source, which are not always exact repeats. Identical values can stand only once. The campaign covered roughly 340,000 compounds. About 6,200 (1.8%) were called active. Inconclusive results, whose numbers are uncertain, are shown with a selection of clear calls. Calls come from the whole dose curve; as a rule, active = well fitted activation curve with a large enough effect; inconclusive = small, poorly fitted or top-dose-only effect; inactive = no such curve, though single readings can be large or run the other way. Potencies beside an inconclusive call are fits to weak or partial responses and may not hold up.

Experiment: A quantitative high throughput screen for small molecules that induce DNA re-replication in SW480 colon adenocarcinoma cells. For re-replication activation: % of control where 0% means no effect. Note: nearly all actives have a fitted effect of over 55% in size.
Settings: Hoechst DNA content imaging, 48 h; re-replication activation: at 46.1 µM (top of the series) unless noted
In short: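 Quantitative HTS format with DMSO vehicle controls; 48 hr drug incubation at 37 C, then 40 min Hoechst staining and scanning imager measurement at 405 nm excitation.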
Potency is the fitted concentration of half-maximal effect.

Structure (SMILES) | Potency | re-replication activation
Cc1ccnc(NC(=O)CCc2c[nH]c3ccccc23)c1 | inconclusive: 29.1 µM [activator, single point] | –
Nc1cc2nc3ccccc3oc-2cc1=O | inconclusive: 6.51 µM [activator, partial curve, poor fit] | –
COc1ccc(OC)c(/C=C/c2ccnc3ccccc23)c1 | active: 11.6 µM | –
COc1ccc(C(=O)Nc2nnc(-c3ccco3)s2)cc1 | inconclusive: 18.4 µM [activator, single point] | –
Cc1ccc(NC(=O)Cn2c(O)c(N=NC(N)=S)c3ccccc32)cc1 | inconclusive: 14.6 µM [activator, single point] | –
CC(CC(=O)NC1CCCCC1)S(=O)(=O)c1ccc2c(c1)CCN2C(=O)C1CC1 (configuration not stated) | – | inconclusive: -36.4% [activator]
COc1ccc(-c2cc(=O)oc3cc(OC(C)C(=O)Nc4ccc(CN5CCOCC5)cc4)ccc23)cc1 (configuration not stated) | inconclusive: 29.1 µM [activator, single point] | –
CN(CC(=O)NC1CCN(Cc2ccccc2)CC1)S(=O)(=O)c1ccc(Cl)s1 | inconclusive: 23.1 µM [activator, partial curve, poor fit] | –
Cc1nc(Nc2ccc(Cl)c(Cl)c2)sc1C(/C=C/c1ccc2c(c1)OCO2)=NNc1ccc([N+](=O)[O-])cc1[N+](=O)[O-] | – | inactive: -6.88%
O=C(CN1C(=O)S/C(=C\c2cccc(Cl)c2)C1=O)NC1C=CS(=O)(=O)C1 (configuration not stated) | inconclusive: 5.8 µM [activator, partial curve] | –
O=C(c1cc(-c2ccccc2)nn1-c1ccccc1)N1CCN(S(=O)(=O)c2ccc(F)cc2)CC1 | – | inactive: -5.99%
Cc1cc(C)c2cc(CN(Cc3cccs3)Cc3nnnn3CC3CCCO3)c(=O)[nH]c2c1 (configuration not stated) | inconclusive: 14.6 µM [activator, single point] | –
COc1ccc(/C=C/c2ccc3cccc(O)c3n2)cc1Br | – | inactive: 9.82%
COC(=O)c1c(NC(NC(C)=O)C(Cl)(Cl)Cl)sc2c1CCCC2 (configuration not stated) | – | inactive: -0.186%
O=C(Cn1[nH]c(=O)c2ccccc2c1=O)OCC(=O)c1ccccc1 | – | inactive: 2.1%
CC(=NNC(=O)c1cccs1)c1ccc2c(c1)OCCO2 | – | inactive: -29.7%
O=C(N/N=C/c1cccc2ccccc12)c1ccccc1Cl | – | inactive: -2.19%
COC(=O)c1cn(CCOc2ccccc2OC)c2ccccc12 | – | inactive: -5.51%
CCSc1nc2ccccc2n1C(=O)/C=C/c1ccc(OC)c(OC)c1 | active: 5.8 µM | –
N#C/C(=C\c1cn(CCOc2ccccc2)c2ccccc12)C(=O)NCC1CCCO1 (configuration not stated) | inconclusive: 11.6 µM [activator, partial curve, poor fit] | –
CC(C)(C)OC(=O)N(Cc1ccccc1)Cc1ccc(OCc2cccc(NC(=O)C3CC3)c2)cc1 | inconclusive: 6.51 µM [activator, single point] | –
O=C(NCc1cccnc1)c1ccc(COc2ccc(Cl)cc2)cc1 | inconclusive: 18.4 µM [activator, single point] | –
COC(=O)c1ccc(NC(=O)N2CCC(O)(c3cccnc3)CC2)cc1 | inconclusive: 23.1 µM [activator, partial curve, poor fit] | –

Structure (SMILES) | Potency | re-replication activation
CC(C)c1nc2sc3c(SCCN(C)C)ncnc3c2c2c1CCC2 | inconclusive: 0.58 µM [activator, full curve, poor fit] | –
Oc1ccccc1/C=N/Nc1ccnc(SCc2ccccc2)n1 | inconclusive: 1.64 µM [activator, full curve, poor fit] | –
Cc1cc(-c2ccc(C)c(S(=O)(=O)Nc3ccc(S(N)(=O)=O)cc3)c2)on1 | inconclusive: 1.03 µM [activator, full curve] | –
Cc1cc(NC(=O)CCC(=O)N(CCC(C)C)C(C(=O)NCC2CCCO2)c2ccccc2C)no1 (configuration not stated) | – | inactive: 0.381%
C=CCn1c(SCC(=O)N2CC(=O)Nc3ccccc32)nc2scc(-c3ccccc3)c2c1=O | – | inactive: 4.97%
O=C(NCc1ccc2c(c1)OCO2)c1ccc(COc2cc(Cl)ccc2Cl)o1 | – | inactive: 10.1%
CN(C)c1ccc(-c2n(C)c3ccccc3[n+]2C)cc1 | inconclusive: 20.6 µM [activator, single point] | –
Cc1ccc(NC(=O)CN2C(=O)NC(C)(c3ccc(Cl)cc3)C2=O)cc1S(=O)(=O)N1CCOCC1 (configuration not stated) | inconclusive: 23.1 µM [activator, single point] | –
CCn1c2ccccc2c2cc(NC(=O)CSc3nnc(-c4cccc(F)c4)o3)ccc21 | inconclusive: 23.1 µM [activator, single point] | –
COCCCN1C(=O)/C(=C/c2ccc(CNS(=O)(=O)c3ccccc3)o2)C(C(=O)OC)=C1C | inconclusive: 0.184 µM [activator, full curve, poor fit] | –
COCC(=O)N1CCC(Oc2ccc(C(=O)N3CCN(C)C[C@@H]3C(C)C)cc2)CC1 | – | inactive: -6.85%
Cc1ccc(NC(=O)CSc2nnc(CNC(=O)C34CC5CC(CC(C5)C3)C4)n2-c2ccc(F)cc2)cc1 | inconclusive: 29.1 µM [activator, single point] | –
CC(C)(C)c1ccc(C(=O)Nc2nnc(SCC(=O)NCC3CCCO3)s2)cc1 (configuration not stated) | – | inactive: 0.914%
C/C(=N\Nc1cc(-c2ccccc2)nc(-c2ccccc2)n1)c1ccc(O)c(C)c1 | inconclusive: 29.1 µM [activator, single point] | –
NC(=O)c1sc2nc3c(c(-c4ccco4)c2c1N)CCCC3 | – | inactive: 28.6%
Cn1ccnc1CN1CCCCC1C(=O)Nc1ccc(Oc2cccnc2)cc1 (configuration not stated) | inconclusive: 18.4 µM [activator, single point] | –
CCn1c(=O)c(C(=O)NNC(=O)c2ccccc2F)c(O)c2ccccc21 | inconclusive: 16.4 µM [activator, single point] | –
Cc1cccc(OC(=O)c2sc(Cl)nc2C)c1 | inconclusive: 29.1 µM [activator, single point] | –
CCn1cnc2c1c(=O)n(CC(=O)Nc1ccc(C(N)=O)cc1)c(=O)n2Cc1ccccc1 | inconclusive: 0.366 µM [activator, full curve, poor fit] | –
CCC1(C)Cc2c(sc3nc(SC)[nH]c(=S)c23)CO1 (configuration not stated) | – | inactive: 27.6%
COc1ccccc1Oc1nc2ccccn2c(=O)c1/C=C(\C#N)C(=O)Nc1c(C)n(C)n(-c2ccccc2)c1=O | inconclusive: 18.4 µM [activator, single point] | –
CN(C)CCN(C(=O)c1ccc(S(=O)(=O)N(C)c2ccccc2)cc1)c1nc2cc3c(cc2s1)OCCO3 | inconclusive: 29.1 µM [activator, single point] | –
O=C(O)/C=C/C(=O)Nc1ccc(N2CCOCC2)nc1N1CCOCC1 | inconclusive: 20.6 µM [activator, single point] | –

Structure (SMILES) | Potency | re-replication activation
CCn1c(C)c(CCC(=O)O)c(=O)n2nc(-c3ccccc3OC)cc12 | – | inactive: 0.585%
O=C(COc1ccc2c(-c3ccccc3)cc(=O)oc2c1)Nc1cccnc1 | inconclusive: 18.4 µM [activator, single point] | –
C#CC(=O)CC1(CN(Cc2ccccc2)C(=O)OC(C)(C)C)CCCCC1 | inconclusive: 23.1 µM [activator, single point] | –
CCN(CC)CCn1c(C)nc2ccccc21 | inconclusive: 29.1 µM [activator, single point] | –
COc1ccccc1N1CCN(C(=O)CN(c2ccccc2OC)S(=O)(=O)c2ccccc2)CC1 | – | inactive: 2.6%
CN(C)/C=C(/C(=O)c1ccccc1)n1cncn1 | – | inactive: -3.82%
CC(C)N(C(C)C)S(=O)(=O)c1ccc(NN)nc1 | inconclusive: 20.6 µM [activator, single point] | –
C[C@@H](NCCCc1cccc(C(F)(F)F)c1)c1cccc2ccccc12 | inconclusive: 11.9 µM [activator, partial curve, poor fit] | –
CN(C)S(=O)(=O)c1ccc(C(=O)Nc2nnc(-c3cccs3)o2)cc1 | – | inactive: -64.5%
O=C(Nc1ccc2c(c1)OCO2)c1cc(-c2ccc(O)cc2)on1 | inconclusive: 0.58 µM [activator, full curve, poor fit] | –
COc1ccc(C(C)=O)cc1CSc1nnc(-c2ccncc2)n1C | – | inactive: -16.4%
Cc1cc(Cl)n2nc(C)c(-c3ccc(Cl)cc3)c2n1 | inconclusive: 29.1 µM [activator, single point] | –
COc1cc2c(oc(=O)c3cc(C)cc(OC)c32)c2c(C3OC(C)C(O)C(C)(O)C3O)ccc(O)c12 (configuration not stated) | inconclusive: 7.31 µM [activator, partial curve, poor fit] | –
CC1(C)c2ccccc2-c2nc3ccccc3cc2C1N1CCOCC1 (configuration not stated) | inconclusive: 29.1 µM [activator, single point] | –
COc1ccc(CCNc2nc(-c3ccc(F)cc3)c(CC(=O)O)s2)cc1OC | – | inactive: 2.99%
COc1cccc(CNS(=O)(=O)c2ccc(S(=O)(=O)N3CCCC3)cc2)c1 | inconclusive: 11.6 µM [activator, single point] | –
OCCN1CCN(CC/C=C2/c3ccccc3Sc3ccc(C(F)(F)F)cc32)CC1 | inconclusive: 33.5 µM [activator, single point] and inconclusive: 15.8 µM [activator, single point] | –
COc1ccc(NC(=O)c2ccc(Cl)nc2)cc1S(=O)(=O)N1CCCCC1 | inconclusive: 29.1 µM [activator, single point] | –
NC(=O)c1ccccc1OCC(=O)N1CCC(Cc2ccccc2)CC1 | inconclusive: 16.4 µM [activator, single point] | –
COc1ccc(N(C)C(=O)c2sc(Cl)nc2C)cc1 | – | inconclusive: 32.7% [activator]
O=C(NC(NNc1ccc([N+](=O)[O-])cc1)(C(F)(F)F)C(F)(F)F)c1ccc(F)cc1 | – | inactive: 10.7%
